# Experimental data taken from patent US4877727A, “Substrate for determining leucine aminopeptidase or gamma-glutamyltranspeptase activity” (Kyowa Medex Co., Ltd., priority 1984, dated 1989).
# Experiment: Sensitivity of pigment (free compound + EMSE + laccase)
# Conditions: absorption at λmax, 37° C., 5 minutes; sensitivity of 5-aminosalicylic acid defined as 100
# Experimental: 50 μl of 1 mM each free compound was added to 3 ml of 0.1M phosphate buffer containing 0.5 mg/ml EMSE and 1 U/ml laccase and the mixture was incubated at 37° C. for 5 minutes. The absorption of the reaction solution at λmax was measured. As a control, 5-aminosalicylic acid was used and the reaction of the compound with 2,6-xylenol was carried out in the presence of metaperiodate under strong alkaline conditions.
# The results are shown, defining the sensitivity of 5-aminosalicylic acid as 100.
row,SMILES,SE: Sensitivity of pigment
1,"CC(C)C[C@H](N)C(=O)Nc1ccc(N(CCCS(=O)(=O)O)CCCS(=O)(=O)O)cc1 [Compound No. 2, L-leucyl-p-N,N-disulfopropyl aminoanilide]",> 500
2,"CC(C)C[C@H](N)C(=O)Nc1ccc(O)c(C(=O)O)c1 [Control, reference compound]",100
3,N[C@@H](CCC(=O)Nc1ccc(N(CCCS(=O)(=O)O)CCCS(=O)(=O)O)cc1)C(=O)O [compound 1],> 500
4,CN(CCCS(=O)(=O)O)c1ccc(NC(=O)CC[C@H](N)C(=O)O)cc1 [compound 3],> 500
5,CC(C)C[C@H](N)C(=O)Nc1ccc(N(C)CCCS(=O)(=O)O)cc1 [compound 4],> 500
6,CCN(CC(O)CS(=O)(=O)O)c1ccc(NC(=O)CC[C@H](N)C(=O)O)cc1 (stereo partly drawn) [compound 5],> 500
7,CCN(CC(O)CS(=O)(=O)O)c1ccc(NC(=O)[C@@H](N)CC(C)C)cc1 (stereo partly drawn) [compound 6],> 500
8,N[C@@H](CCC(=O)Nc1ccc(N(CCCS(=O)(=O)O)CCCS(=O)(=O)O)c(S(=O)(=O)O)c1)C(=O)O [compound 7],237
9,CC(C)C[C@H](N)C(=O)Nc1ccc(N(CCCS(=O)(=O)O)CCCS(=O)(=O)O)c(S(=O)(=O)O)c1 [compound 8],237
10,N[C@@H](CCC(=O)Nc1ccc(N(CCCS(=O)(=O)O)CCCS(=O)(=O)O)c(Cl)c1)C(=O)O [compound 9],315
11,CC(C)C[C@H](N)C(=O)Nc1ccc(N(CCCS(=O)(=O)O)CCCS(=O)(=O)O)c(Cl)c1 [compound 10],315
12,CC(C)C[C@H](N)C(=O)Nc1ccc(N(CCS(=O)(=O)O)CCS(=O)(=O)O)c(C#N)c1 [compound 11],177
13,Cc1cc(NC(=O)[C@@H](N)CC(C)C)ccc1N(CCS(=O)(=O)O)CCS(=O)(=O)O [compound 12],> 500
14,COC(=O)c1cc(NC(=O)[C@@H](N)CC(C)C)ccc1N(CCCCS(=O)(=O)O)CCCCS(=O)(=O)O [compound 13],312
15,COc1cc(N(CCCCS(=O)(=O)O)CCCCS(=O)(=O)O)c(C)cc1NC(=O)[C@@H](N)CC(C)C [compound 14],406
